Measured values reported in patent US20250090473A1, “Macrophage Targeted Immunotherapeutics” (The General Hospital Corporation, priority 2017, published 2025).
At least one structure is not confirmed: it was looked up by name or label, or the drawing left a doubt.

Legend:
[1] = test system: murine M2-like macrophages; assay: High-content morphological screening of macrophage re-education (M1 enrichment); assay type: cell-based
Description: Cells were maintained in the indicated medium at 37° C. and 5% CO2 and screened regularly for mycoplasma. RAW 264.7 cells were sourced from ATCC and maintained in Dulbecco's Modified Eagles Medium supplemented with 10% heat inactivated fetal calf serum (Atlanta Biologicals), 100 IU penicillin (Invitrogen), and 100 μg mL^−1 streptomycin (Invitrogen), and […] L-glutamine. The MC38 mouse colon adenocarcinoma cell lines were provided by Mark Smyth (QIMR Berghofer Medical Research Institute) with stable transfection of the H2B-Apple reporter to yield a MC38-H2B-mApple cell line employed in intravital microscopy studies. Murine bone marrow-derived macrophages (BMDMs) were isolated and derived by adaptation of published procedures known to those of skill in the art. Briefly, bone marrow was extracted from the surgically resected femur and tibia of naive C57BL/6 mice, dissociated and passed through a 40 μm strainer, and red blood cells lysed by ammonium chloride (StemCell Tech). […] Cell proliferation was assessed by PrestoBlue (Fisher) following manufacturer's protocols. […]

[2] = test system: M2-like (IL-4 treated) murine macrophages; assay: qPCR transcriptional analysis of M2-like (IL-4 treated) murine macrophages; assay type: cell-based; conditions: validation set of drugs, FIG. 21A
Description: For transcriptional analysis, derived murine macrophages were treated with 10 ng mL^−1 recombinant mouse IL-4 (PeproTech 214-14) for 24 hours to induce an M2-like polarization state and subsequently dosed with fresh media supplemented by pharmacologic drugs at the prescribed concentrations. Macrophages treated only with IL-4 (10 ng mL^-1) or LPS (100 ng mL^-1) and IFNg (50 ng mL^-1) served as internal controls for M2-like and M1-like transcription profiles, respectively. […] Data are presented as the gene expression (fold change relative to hprt or β-actin, as indicated) or M1-likeness, calculated as described in Example 2, FIG. 20B. […]
A subset of drugs having a range of M1 enrichment activities were further scrutinized by qPCR analysis of representative M1-like (nos2, il12, and cd80) and M2-like (mrc1, arg1) transcripts. FIG. 20A is a set of two bar graphs depicting gene expression of M1-like and M2-like macrophages, expressed as fold change relative to hprt. […] M1-likeness is determined by summing the changes in expression for each gene resulting from treatment, normalized to the range of expression observed in the training data. […]

human macrophages = assay: qPCR il12 expression in human macrophages; assay type: cell-based; conditions: 100 nM R848, 24 hr
[3] = Colorimetric phenolphthalein competitive binding assay; conditions: R848 20 mM, nanoparticle 0.5 mg mL^−1
MC38 tumors = assay: MC38 tumor growth model; assay type: in vivo, C57BL/6 mice; conditions: repeated dosing regimen, day 8
MC38 cells = assay: MC38 cell proliferation (PrestoBlue assay); assay type: cell-based, mouse; conditions: in vitro, 10 nM, 100 nM, and 1.0 μM R848 or matched dose
IL12 expression in TAMs = IL12 expression in TAMs of IL12-YFP reporter mice (intravital imaging, flow cytometry); conditions: 24 hours following administration

CCOCc1nc2c(N)nc3ccccc3c2n1CC(C)(C)O [R848, resiquimod]
morphology of re-educated macrophages ([1]; 48 hours, 100 nM): closely resembled M1 controls | M1 enrichment in response to drug treatment ([1]; variable concentrations, FIG. 5A): M1 enrichments which were as pronounced as standard M1 induction by LPS and IFNγ | transcriptional M1-likeness [2]: strong ability of R848 to induce M1-like gene transcription | M1-like transcription (il12) in human M2 macrophages (human macrophages): enhanced M1-like transcription | competitive binding, recovery of phenolphthalein absorbance (550 nm) [3]: competitively bound to the 100% CD/Dex particle, recovering phenolphetalein absorbance | tumor growth (MC38 tumors): marginal benefits in terms of tumor control | MC38 cell proliferation (MC38 cells): no effect on proliferation between groups | IL12 response in TAMs in vivo (IL12 expression in TAMs): failed to elicit a robust IL12 response
